Assay results reported in patent publication US20260248780A1, “PHARMACEUTICAL COMPOSITIONS” (Birdie Biopharmaceuticals, Inc., priority 2017, published 2026).
Structures can show the parent of a compound that is named as a salt. Further values from the same series stand in other lists. Marks after values point to notes of the source that are not given here.

Assays:
[1] = Kinetic solubility in water and bio-relevant media (SGF, FaSSIF, FeSSIF) at RT; type: physicochemical
Method: After being centrifuged and separated using 0.45 μm Nylon filter, filtrates were collected for HPLC and pH test, and wet cakes for XRPD characterization. If clear solutions were obtained after 24 hours, accurate concentration and purity were measured for the solutions.

[2] = Solubility estimation in solvents at RT; type: physicochemical

CCOCc1nc2c(N)nc3ccccc3c2n1CC(C)(C)O [Adipate Type A, resiquimod]
S: Solubility ([1]; FeSSIF, 1 hr): C (C: Clear) | S: Solubility ([1]; FeSSIF, 2 hrs): C (C: Clear) | S: Solubility ([1]; FeSSIF, 4 hrs): C (C: Clear) | S: Solubility ([1]; FeSSIF, 24 hrs): 4.2* mg/mL

CCOCc1nc2c(N)nc3ccccc3c2n1CC(C)(C)O [Di-HCl salt Type A, resiquimod]
S: Solubility ([1]; Water, 1 hr): C (C: Clear) | S: Solubility ([1]; Water, 2 hrs): C (C: Clear) | S: Solubility ([1]; Water, 4 hrs): C (C: Clear) | S: Solubility ([1]; Water, 24 hrs): 3.8* mg/mL

CCOCc1nc2c(N)nc3ccccc3c2n1CC(C)(C)O [Freebase Type A, 1-[4-amino-2-(ethoxymethyl)imidazo-[4,5-c]-quinolin-1-yl]-2-methylpropan-2-ol]
Solubility ([2]; Anisole, RT, listed as 807920-05-A): S < 2.3 mg/mL | Solubility ([2]; DMAc, RT, listed as 807920-05-A): S > 48.0 mg/mL | Solubility ([2]; DMSO, RT, listed as 807920-05-A): S > 44.0 mg/mL | Solubility ([2]; H2O, RT, listed as 807920-05-A): S < 2.1 mg/mL | Solubility ([2]; MTBE, RT, listed as 807920-05-A): S < 2.2 mg/mL | Solubility ([2]; MeOH, RT, listed as 807920-05-A): S > 46.0 mg/mL | Solubility ([2]; NMP, RT, listed as 807920-05-A): S > 40.0 mg/mL | Solubility ([2]; n-heptane, RT, listed as 807920-05-A): S < 2.0 mg/mL | Solubility ([2]; toluene, RT, listed as 807920-05-A): S < 2.2 mg/mL | S: Solubility ([1]; FeSSIF, 1 hr): 4.9 mg/mL | S: Solubility ([1]; FeSSIF, 2 hrs): 4.9 mg/mL | S: Solubility ([1]; FeSSIF, 4 hrs): 4.9 mg/mL | S: Solubility ([1]; FeSSIF, 24 hrs): 4.9* mg/mL

CCOCc1nc2c(N)nc3ccccc3c2n1CC(C)(C)O [Malate Type A, resiquimod]
S: Solubility ([1]; FeSSIF, 1 hr): C (C: Clear) | S: Solubility ([1]; FeSSIF, 2 hrs): C (C: Clear) | S: Solubility ([1]; FeSSIF, 4 hrs): C (C: Clear) | S: Solubility ([1]; FeSSIF, 24 hrs): 3.5* mg/mL

CCOCc1nc2c(N)nc3ccccc3c2n1CC(C)(C)O [Maleate Type A, resiquimod]
S: Solubility ([1]; FeSSIF, 1 hr): 1.5 mg/mL | S: Solubility ([1]; FeSSIF, 2 hrs): 1.6 mg/mL | S: Solubility ([1]; FeSSIF, 4 hrs): 1.7 mg/mL | S: Solubility ([1]; FeSSIF, 24 hrs): 1.6 mg/mL

CCOCc1nc2c(N)nc3ccccc3c2n1CC(C)(C)O [Mono-HCl salt Type A, resiquimod]
S: Solubility ([1]; Water, 1 hr): C (C: Clear) | S: Solubility ([1]; Water, 2 hrs): C (C: Clear) | S: Solubility ([1]; Water, 4 hrs): C (C: Clear)

CCOCc1nc2c(N)nc3ccccc3c2n1CC(C)(C)O [Phosphate Type A, resiquimod]
S: Solubility ([1]; FeSSIF, 1 hr): C (C: Clear) | S: Solubility ([1]; FeSSIF, 2 hrs): C (C: Clear) | S: Solubility ([1]; FeSSIF, 4 hrs): C (C: Clear) | S: Solubility ([1]; FeSSIF, 24 hrs): 3.8* mg/mL

CCOCc1nc2c(N)nc3ccccc3c2n1CC(C)(C)O [Sulfate Type A, resiquimod]
S: Solubility ([1]; FeSSIF, 2 hrs): C (C: Clear) | S: Solubility ([1]; FeSSIF, 4 hrs): C (C: Clear) | S: Solubility ([1]; FeSSIF, 24 hrs): 4.2* mg/mL

CCOCc1nc2c(N)nc3ccccc3c2n1CC(C)(C)O [sulfate Type A (807919-21-A)]
Solubility ([2]; 1,4-dioxane, RT): S < 2.1 mg/mL | Solubility ([2]; 2-MeTHF, RT): S < 2.2 mg/mL | Solubility ([2]; Acetone, RT): S < 2.0 mg/mL | Solubility ([2]; CHCl3, RT): S < 2.0 mg/mL | Solubility ([2]; DCM, RT): S < 2.3 mg/mL | Solubility ([2]; Ethyl lactate, RT): S < 2.2 mg/mL | Solubility ([2]; H2O, RT): S > 44.0 mg/mL | Solubility ([2]; IBA, RT): S < 2.1 mg/mL | Solubility ([2]; IPA, RT): S < 2.2 mg/mL | Solubility ([2]; THF, RT): S < 2.3 mg/mL
